## Screening data, single-dose tests

Measurements from “University of Dundee, Small-Polar-MMV Screening Library” (2021), ChEMBL document CHEMBL3988442.

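Phenotypic screen: M. tuberculosis growth, glucose 7H9 medium, 3 days; the read-out is not stated. Concentration: 50 µM. The record gives no direction; compounds that gave an IC50 in retests scored well above the rest, so higher reads as more growth inhibition. Of about 69,000 compounds tested this way, about 760 (1.1%) reached 50% or more in at least one test.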

Each number is a percent effect as filed. The record does not define 0% and 100%; most values in the screen are far below 50% and negative numbers occur (in some assays of this library far below -100). Compounds were drawn at random from those tested, without regard to their results. Two or more numbers in one place are separate tests of the same structure; such repeats can differ widely.

| structure | effect |
|---|---|
| `Cn1c(Cn2cccn2)nnc1C1CCCN(c2ccncc2)C1` (stereo not given) | -8.413% |
| `CC(C(=O)NC1CC1)S(=O)(=O)Cc1noc(C(C)(C)C)n1` (stereo not given) | -7.419% |
| `CNC(=O)Cn1c(CO)cnc1SCc1ccccc1Cl` | -7.42% and 12.04% |
| `O=C1CC[C@@H](CN(Cc2ccncc2)Cc2nc(CC3CC3)no2)N1` | -6.353% |
| `CCN(C(=O)CN1CCn2c(nnc2C2CC2)C1)C1=CCCCC1` | 26.02% |
| `CCc1cnc(C)nc1NC(CC)c1cnn(C)c1` (stereo not given) | -37.1% |
| `Cc1nn(C)c(N(C)C)c1CNCc1ccc(Cn2cccn2)cc1` | -19.87% and -2.03% |
| `CC(C)NC(=O)[C@@H]1C[C@@H](N)CN1C(=O)CCSCc1ccc(F)cc1` | 17.33% |
| `N#CCCN(CC1CCOC1)S(=O)(=O)c1cccc(Cl)c1` (stereo not given) | 9.555% and 12.95% |
| `CN(C)c1cc(N(C)Cc2cc(C(C)(C)C)n[nH]2)ncn1` | -11.8% and 5.363% |
| `Cl.c1ccc(CCNc2cccc(C3CCCNC3)n2)cc1` (stereo not given) | 10.26% |
| `Cc1occc(=O)c1OCc1noc(C(=O)NCC2CC2)n1` | -6.796% |
| `COC(=O)C1Cc2nc[nH]c2CN1Cc1ccc(Sc2ncccn2)o1` (stereo not given) | 8.057% |
| `[H][C@@]12CS(=O)(=O)C[C@]1([H])N(C(=O)Cc1ccc(F)c(C)c1)CCN2CC(C)C` | -6.718% |
| `Cc1nn(C)c(N(C)C)c1CNCCCN(C(C)C)S(C)(=O)=O` | -6.138% |
| `Cc1cccc(S(=O)(=O)NCC(C)(C)CC(C)O)c1C#N` (stereo not given) | 32.01% |
| `CCc1nnc(Nc2cccc(C3CCN(c4cnccn4)CC3)n2)s1` | -34.14% |
| `O=c1[nH]c(=O)n(CC(O)c2ccccc2Cl)cc1Cl` (stereo not given) | -8.071% |
| `O=C(O)C(F)(F)F.[H][C@@]12CCC(=O)N(CCOC)[C@]1([H])CCN2Cc1ccc(C)s1` | -10.7% |
| `CN1CCN(Cc2cn3c(n2)CN(C(=O)N2CCCC2)CC3)CC1` | 17.57% and -7.628% |
| `Cc1cc(C)n(CC2CCCN2C(=O)Cc2c(C)nn(C)c2C)n1` (stereo not given) | -34.53% |
| `Cc1cc(N2CCC(C(=O)N(C)C)CC2)nc(-c2ccncc2)n1` | -11.57% |
| `Cc1cc(C2CCCN2CCC(=O)N2CCc3sccc3C2)no1` (stereo not given) | 9.408% |
| `c1csc(-c2noc(COCC3CCCO3)n2)c1` (stereo not given) | 8.532% |
| `CC1CCCCN1c1nc2c(c(=O)[nH]1)CCN(Cc1ccccc1O)C2` (stereo not given) | 9.46% |
| `O=C1CC(C(=O)O)C2(CCN(C(=O)NCc3ccc(Cl)cc3)CC2)N1` (stereo not given) | 19.47% |
| `Cc1ccc(CN2CC(C(=O)NCC3CC3)C3(CCOCC3)C2)s1.O=C(O)C(F)(F)F` (stereo not given) | 16.01% and -2.83% |
| `O=C(O)c1nnn(-c2ccccc2F)c1-c1ccncc1` | -39.22% |
| `CC(SCCS(C)(=O)=O)c1nc(Cc2ccc(F)cc2)no1` (stereo not given) | 12.53% |
| `Cc1cnc(C(=O)N2CCc3ncnc(-c4cnn(C)c4)c3CC2)cn1` | 3.315% |
| `CCc1nnc2n1CCN(Cc1csc(-c3ncccn3)n1)C2` | -6.429% |
| `O=C(c1ccc(CN2CCCC2)cc1)N1CCCC(n2cccn2)C1` (stereo not given) | 11.25% |
| `O=C(CN1CCOC(Cn2cccn2)C1)Nc1nccs1` (stereo not given) | 16.2% |
| `Cc1n[nH]c(C2CN(C(=O)c3ccc4c(c3)COC4)CCO2)n1` (stereo not given) | -17.77% |
| `c1coc(-c2noc(CN3CCCC(Cn4cncn4)C3)n2)c1` (stereo not given) | 23% |
| `Cc1cc(C)n(CC2CN(CC(=O)NCc3ccccn3)CCO2)n1` (stereo not given) | 2.457% |
| `O=C(Nc1cc(C2CCOCC2)[nH]n1)c1ccc(Cl)cn1` | -5.138% |
| `CN(Cc1ccncc1)C1COC2(CCN(c3ncc(F)cn3)CC2)C1.O=C(O)C(F)(F)F.O=C(O)C(F)(F)F` (stereo not given) | 8.899% |
| `O=C(Cc1ccc(F)cc1)NCCNCc1cccc(O)c1` | 24.41% |
| `O=C(c1ccccc1-c1nc[nH]n1)N1CCOC(C(F)(F)F)C1` (stereo not given) | -8.139% |
| `CN1CC=C(c2noc(CCC(=O)N3CCCC3)n2)CC1` | 49.94% |
| `Cc1c(F)cccc1S(=O)(=O)NCC(C)(C)CC(C)O` (stereo not given) | 35.56% |
| `CN1CCC(N(C)CCC(=O)N2CCC(CCc3ccccc3)CC2)C1` (stereo not given) | 63.4% |
| `CCN(Cc1ccncc1)c1cc(C2CCCNC2)nc(C)n1` (stereo not given) | 9.135% |
| `Cc1cnn(CC2CCCN2C(=O)c2sccc2-n2cnnn2)c1` (stereo not given) | -4.507% and 0.3294% |
| `CC(=O)NCCNc1cc(C)nc2cc(C)nn12` | -5.046% |
| `Cc1ncsc1-c1nnc(C2CCN(CC3CCCCC3)CC2)o1` | -3.75% |
| `CC(Cn1cccn1)NC(=O)CCC(=O)c1cccs1` (stereo not given) | -20.66% |
| `O=C(c1ccccc1-c1nnn[nH]1)N1CCOC(C(F)(F)F)C1` (stereo not given) | 2.994% |
| `c1cc(CNc2ccc(-c3nc(C4CC4)no3)cn2)no1` | 20.12% |
| `CCC(C)N1Cc2c(C(=O)N3CCOCC3)nn(C)c2C1.O=C(O)C(F)(F)F` (stereo not given) | 13.73% |
| `Cc1ccccc1CC(=O)NS(=O)(=O)c1cccc2cnccc12` | 21.12% |
| `COCC(=O)N1Cc2cnc(Cc3ccc(OC)cc3)nc2C1` | 15.9% and -8.682% |
| `CCc1nc(CN2CCCC(NCc3nnc(C4CC4)n3C)C2)no1` (stereo not given) | 7.369% |
| `c1cncc(CN2CCC(c3ccnc4nccn34)C2)c1` (stereo not given) | -20.13% |
| `CN(Cc1ccncc1)CC(c1cccs1)N1CCOCC1` (stereo not given) | 2.712% |
| `[H][C@]12CCC(=O)N(c3cccnc3)[C@@]1([H])CCN2C(=O)c1cccs1` | -28.52% |
| `CNc1cc(N2CCCC2CNCc2cccc(C(N)=O)c2)ncn1` (stereo not given) | 7.689% |
| `CCCN1CCC(NC(=O)c2ccnc(SCC)c2)CC1` | -10.99% |
| `Cc1ccc(CN2C(=O)CC[C@]23CC[C@@H](NCC2CCOC2)CC3)cc1.O=C(O)C(F)(F)F` (stereo not given in full) | -30.29% |
| `Cc1cnn(CCNCC(=O)NCCOc2ccccc2)c1` | -40.89% |
| `CN(C)CCN1C(=O)CCC12CCN(C(=O)CC1CC1)CC2` | -4.142% |
| `COCc1cc(NCCc2ccc(F)cc2)n2nccc2n1` | 2.576% and 16.81% |
| `COc1ccnc(N2CCCN(c3nc(C4CC4)ns3)CC2)n1` | 74.83% |
| `Cc1ccc(C)c(NS(=O)(=O)c2cc3c(c(C(=O)O)c2)OCCO3)c1` | -1.629% |
| `Cc1nc(NC(C)C)nc2c1CN(Cc1cccs1)CC2` | 34.51% and 25.73% |
| `NC(=O)c1cn[nH]c1NC(=O)c1ccc2c(c1)OCO2` | -13.45% |
| `CN(Cc1ccc(OC(F)F)cc1)C(=O)CS(=O)(=O)c1ccc(Cl)cc1` | 15.18% |
| `O=C(O)C(F)(F)F.[H][C@]12CCC[C@@]1(COCc1ccccn1)CN(S(=O)(=O)C1CC1)C2` | 27.11% |
| `Oc1cc(C2CCCCN2Cc2ccsc2)nc(-c2ccncc2)n1` (stereo not given) | -12.85% |
| `Clc1ccc(-c2cnc(CNC3CCc4ncnn4C3)o2)cc1` (stereo not given) | 28.52% |
| `Nc1nc(C2CCN(C(=O)c3cncs3)CC2)cs1` | 0.6039% |
| `Cn1cc(S(=O)(=O)NCc2ccc(F)cc2)cn1` | 42.93% |
| `Cc1cc(CC(C)Nc2nc(C3CCCC3)nc3c2cnn3C)[nH]n1` (stereo not given) | 4.951% |
| `O=C(NCc1ccnc(O)c1)NCC1CCCC1` | 34.14% |
| `O=C(CCN1CCCCO1)NCCSc1cnn[nH]1` | -3.136% |
| `Cl.c1cncc(CNCc2cccs2)c1` | 0.3981% |
| `Cc1cc(NC(=O)CN2CCCC2c2noc(C)n2)n(C)n1` (stereo not given) | -21.89% |
| `N#Cc1c[nH]nc1NCc1ccc2c(c1)OCO2` | 3.266% and -0.7974% |
| `CS(=O)(=O)NC1CCCN(C(=O)NCc2cccnc2)C1` (stereo not given) | -11.67% |
| `CC1CCc2nn(CCNC(=O)C3CCCC3)c(=O)cc2C1` (stereo not given) | -22.14% |
| `[H][C@@]12CCN(c3nc(-c4ccncc4)nc4c3cnn4C)C[C@@]([H])(CC1)N2C` | -17.14% |
| `CC1CCN(C)c2ccccc2N1C(=O)c1ccn(C)c(=O)c1` (stereo not given) | 14.33% |
| `[H][C@]12CCNCC[C@@]1([H])S(=O)(=O)N(Cc1cccc(OC)c1)C2` | -66.09% and -12.07% |
| `CC/C=C(/C)C(=O)NCCc1csc(N2CCCC2)n1` | 16.48% |
| `COc1ccnc(N2CCN(C(C)c3nc(C)no3)CC2)n1` (stereo not given) | 8.451% |
| `CC(C)n1cc(CN2CCCN(C(=O)CC3CCCO3)CC2)cn1` (stereo not given) | -31.52% and -4.389% |
| `CCOc1ccc2[nH]c3c(N(C)CC4OCCO4)ncnc3c2c1` | 5.086% and 8.423% |
| `O=C(CCc1nccs1)N1CCN(c2ncccn2)CC1` | 7.509% |
| `O=C(O)CC(O)(CC(=O)O)C(=O)O.[H][C@@]12CCCN1C[C@H](CCSC)N(Cc1cnn(CC)c1)C2` | -1.16% |
| `O=C(c1cc(F)ccc1F)C1CCN(C(=O)c2cccnc2O)CC1` | 5.482% |
| `c1cc2occc2c(N2CCCC(c3nncn3C3CC3)C2)n1` (stereo not given) | -34.57% |
| `Cc1nc2cc(O)nn2c(C)c1CCC(=O)NCCc1nccn1C` | -9.763% |
| `CCCS(=O)(=O)N1CCC(NC(=O)c2cc(CC)c(C)s2)CC1` | 30.64% |

10 of the entries, repeated:

structure	effect
Cc1c(F)cccc1S(=O)(=O)NCC(C)(C)CC(C)O (stereo not given)	35.56%
CN(Cc1ccncc1)C1COC2(CCN(c3ncc(F)cn3)CC2)C1.O=C(O)C(F)(F)F.O=C(O)C(F)(F)F (stereo not given)	8.899%
CC/C=C(/C)C(=O)NCCc1csc(N2CCCC2)n1	16.48%
O=C(Nc1cc(C2CCOCC2)[nH]n1)c1ccc(Cl)cn1	-5.138%
c1coc(-c2noc(CN3CCCC(Cn4cncn4)C3)n2)c1 (stereo not given)	23%
N#CCCN(CC1CCOC1)S(=O)(=O)c1cccc(Cl)c1 (stereo not given)	9.555% and 12.95%
Cc1cnc(C(=O)N2CCc3ncnc(-c4cnn(C)c4)c3CC2)cn1	3.315%
COCC(=O)N1Cc2cnc(Cc3ccc(OC)cc3)nc2C1	15.9% and -8.682%
CS(=O)(=O)NC1CCCN(C(=O)NCc2cccnc2)C1 (stereo not given)	-11.67%
Cl.c1ccc(CCNc2cccc(C3CCCNC3)n2)cc1 (stereo not given)	10.26%